Measurements from article PMC11253597.

Experiments:
[1] = biological target: GFP::SseM^V103A (Salmonella enterica serovar Typhimurium strain 12023); assay: co-IP; GFP-trap agarose on lysates of HEK293 cells transiently transfected (16 h) with GFP-tagged SseM variants; immunoblot for endogenous β-2-syntrophin and α-dystrobrevin
[2] = biological target: GFP::SseM^T101A (Salmonella enterica serovar Typhimurium strain 12023); assay: as above
[3] = biological target: translocated SseM^V103A (Salmonella enterica serovar Typhimurium strain 12023); assay: co-IP; HeLa cells infected with S. Typhimurium for 14.5 h, then MG132 for 3 h; lysate in buffer A (50 mM Tris pH 7.5, 150 mM NaCl, 0.5% sodium deoxycholate, 1% Triton X-100, 1 mM EDTA) precipitated with rabbit anti-SseM antibody on Protein G agarose; immunoblot

Measured: binding

B1: α-dystrobrevin (protein, UniProt Q9Y4J8 1-743)
chain: MIEDSGKRGNTMAERRQLFAEMRAQDLDRIRLSTYRTACKLRFVQKKCNLHLVDIWNVIEALRENALNNLDPNTELNVSRLEAVLSTIFYQLNKRMPTTHQIHVEQSISLLLNFLLAAFDPEGHGKISVFAVKMALATLCGGKIMDKLRYIFSMISDSSGVMVYGRYDQFLREVLKLPTAVFEGPSFGYTEQSARSCFSQQKKVTLNGFLDTLMSDPPPQCLVWLPLLHRLANVENVFHPVECSYCHSESMMGFRYRCQQCHNYQLCQDCFWRGHAGGSHSNQHQMKEYTSWKSPAKKLTNALSKSLSCASSREPLHPMFPDQPEKPLNLAHIVDTWPPRPVTSMNDTLFSHSVPSSGSPFITRSSPPKDSEVEQNKLLARAAPAFLKGKGIQYSLNVADRLADEHVLIGLYVNMLRNNPSCMLESSNRLDEEHRLIARYAARLAAESSSSQPPQQRSAPDISFTIDANKQQRQLIAELENKNREILQEIQRLRLEHEQASQPTPEKAQQNPTLLAELRLLRQRKDELEQRMSALQESRRELMVQLEGLMKLLKTQGAGSPRSSPSHTISRPIPMPIRSASACSTPTHTPQDSLTGVGGDVQEAFAQSSRRNLRNDLLVAADSITNTMSSLVKELNSEVGSETESNVDSEFARTQFEDLVPSPTSEKAFLAQIHARKPGYIHSGATTSTMRGDMVTEDADPYVQPEDENYENDSVRQLENELQMEEYLKQKLQDEAYQVSLQG
no binding: all assays above

No constants are given. Whether binding was seen depends on the method and setting. In cells and extracts the contact can be indirect.
